Reference: the supplement of paper PMC12823440, “Inhibitors supercharge kinase turnover through native proteolytic circuits” (Nature, 2025)
Structures can show the parent of a compound that is named as a salt. Some of the results follow. Hit calls seldom repeat between salt and free forms of one compound.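 Kinases were expressed as nanoluciferase fusions in K562 cells and luminescence was read every 4 h between 2 and 18 h as percent of control, DMSO set to 100% and a positive control to 0%. A time point counts as decreased when the signal drops significantly (2 sigma). The hit call is the authors' own, does not follow from the count of time points alone, and its rule is not shown.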

The chains behind the UniProt entries cited, without tags or fusion partners. Where a name states a change or a piece, a line headed by the entry shows the natural chain unless it says otherwise.
UniProt P53667: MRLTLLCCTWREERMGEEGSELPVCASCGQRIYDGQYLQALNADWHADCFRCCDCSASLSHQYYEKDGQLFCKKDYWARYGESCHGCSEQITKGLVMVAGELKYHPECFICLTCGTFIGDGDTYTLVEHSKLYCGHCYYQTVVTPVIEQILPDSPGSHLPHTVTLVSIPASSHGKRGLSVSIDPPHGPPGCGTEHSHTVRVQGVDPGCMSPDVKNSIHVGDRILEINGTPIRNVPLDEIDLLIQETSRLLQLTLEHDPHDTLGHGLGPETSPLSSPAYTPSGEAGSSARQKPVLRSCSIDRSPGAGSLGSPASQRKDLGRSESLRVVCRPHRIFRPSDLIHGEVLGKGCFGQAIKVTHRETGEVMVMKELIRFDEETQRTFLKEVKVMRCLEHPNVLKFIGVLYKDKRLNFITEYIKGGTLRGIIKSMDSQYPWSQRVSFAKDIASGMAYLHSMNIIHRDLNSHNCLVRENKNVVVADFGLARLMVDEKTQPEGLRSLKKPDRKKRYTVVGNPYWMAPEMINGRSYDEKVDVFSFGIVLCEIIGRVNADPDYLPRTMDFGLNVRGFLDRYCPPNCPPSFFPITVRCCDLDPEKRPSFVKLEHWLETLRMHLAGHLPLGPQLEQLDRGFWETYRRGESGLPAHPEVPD
UniProt P53671: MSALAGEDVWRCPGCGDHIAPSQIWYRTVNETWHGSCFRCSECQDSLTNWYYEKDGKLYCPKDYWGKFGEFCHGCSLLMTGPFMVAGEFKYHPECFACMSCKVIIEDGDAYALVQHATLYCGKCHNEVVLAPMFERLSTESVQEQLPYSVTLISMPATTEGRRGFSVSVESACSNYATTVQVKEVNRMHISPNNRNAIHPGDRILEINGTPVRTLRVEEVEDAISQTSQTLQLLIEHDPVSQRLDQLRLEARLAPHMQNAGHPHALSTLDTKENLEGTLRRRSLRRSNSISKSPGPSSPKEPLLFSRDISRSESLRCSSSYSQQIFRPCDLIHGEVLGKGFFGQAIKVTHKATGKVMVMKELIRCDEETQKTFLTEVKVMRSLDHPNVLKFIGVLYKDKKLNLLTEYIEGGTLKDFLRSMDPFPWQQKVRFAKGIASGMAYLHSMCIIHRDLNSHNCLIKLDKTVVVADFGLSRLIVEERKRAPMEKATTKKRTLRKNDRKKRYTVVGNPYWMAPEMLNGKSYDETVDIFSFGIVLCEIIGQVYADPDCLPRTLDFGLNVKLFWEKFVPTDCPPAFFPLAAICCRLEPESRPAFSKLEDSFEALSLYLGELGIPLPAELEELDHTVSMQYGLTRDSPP

Each compound was assayed against LIMK1 (UniProt P53667) (assay: number of time points (of 5) at which kinase-Nluc abundance scored as decreased, DMSO-normalised (count); higher = more persistent destabilization). Conditions: K562; 2-18 h.

Structure (SMILES)	number of time points
COc1ccc(-c2cnc3c(-c4cccc5ncccc45)cnn3c2)cc1 (10 µM)	0
Cc1c(Br)c(Br)c2c3c1nc(N1CCNCC1)n3CCC2 [SEL120-34A (monohydrochloride)] (2.5 µM)	0
Cc1nc(Nc2ncc(C(=O)Nc3c(C)cccc3Cl)s2)cc(N2CCN(C(=O)CCCCCCC(=O)N[C@H](C(=O)N3C[C@H](O)C[C@H]3C(=O)NCc3ccc(-c4scnc4C)cc3)C(C)(C)C)CC2)n1 (2.5 µM)	3
CC(=O)Nc1nc(C)c(-c2ccc(Cl)c(S(=O)(=O)NCCO)c2)s1 (10 µM)	2
CC(C)n1nc(C#Cc2ccccc2)c2c(N)ncnc21 (10 µM)	0
COc1cc(OC)c(/C=C/S(=O)(=O)Cc2ccc(OC)c(NCC(=O)O)c2)c(OC)c1 [Rigosertib (sodium)] (10 µM)	0
CNC[C@@H](NC(=O)c1ccc(-c2nc([C@H]3CC[C@H](O)[C@@H](F)C3)cnc2N)cc1F)c1cc(F)cc(Br)c1 [Rineterkib] (10 µM)	0
CCCC[C@H](CO)Nc1nc(NC)ncc1OC [Interferon receptor inducer-1] (10 µM)	0
CC(C)=C/C=C1\O[C@@H]2CC(C)=CC(=O)[C@@H]2[C@]1(C)O [Bisabolangelone] (10 µM)	0
CCCCCC1CC1CC1CC1CCCCCCCC(=O)O (stereo not given) (10 µM)	0
CNC(=O)c1c(C)oc2cc(Oc3ncnc4cc(OC)c(OC)cc34)ccc12 [Fruquintinib] (10 µM)	0
CC(C)(C)S(=O)(=O)c1cc2c(Nc3ccc4scnc4c3)ccnc2cc1OCCOCCOCCOCCOCC(=O)Nc1cccc2c1CN(C1CCC(=O)NC1=O)C2=O (stereo not given) [PROTAC RIPK degrader-6] (10 µM)	0
C[C@]1(O)C[C@@](N)(c2ccc(-c3nc4n(c3-c3ccccc3)COc3ccncc3-4)cc2)C1 [TAS-117 (hydrochloride)] (10 µM)	0
CNC(=O)c1nnc(NC(=O)C2CC2)cc1Nc1cccc(-c2ncn(C)n2)c1OC [Deucravacitinib] (10 µM)	0
O=c1sn(-c2cccc3ccccc23)c(=O)n1Cc1ccccc1 [Tideglusib] (10 µM)	0
C=CC(=O)Nc1cccc(Oc2nc(Nc3ccc(N4CCN(C)CC4)cc3)ncc2Cl)c1 (2.5 µM)	0
CNC(=O)c1ccc(-c2cnc3ncc(Cc4ccc5ncccc5c4)n3n2)cc1F [Capmatinib] (10 µM)	0
CN(C)C(=O)c1cc2cnc(Nc3ccc(NC(=O)C4(C(=O)Nc5ccc(F)cc5)CC4)cc3)nc2n1C1CCCC1 (2 µM)	0
Cn1cc(C2=C(c3c4n(c5ccccc35)CCC(CN)C4)C(=O)NC2=O)c2ccccc21 (stereo not given) [Bisindolylmaleimide X (hydrochloride)] (2.5 µM)	0
COc1cc(/C=C/c2ccc(NC(=O)/C=C/c3cc(OC)c(OC)c(OC)c3)cc2)cc(OC)c1 (2.5 µM)	0
O=C(N=c1sccn1Cc1ccccc1)c1c[nH]c2ncccc12 (10 µM)	0
C=CCN(/C=C1/C(=O)O[C@H](COC)[C@@]2(C)C1=C(O)C(=O)C1=C2[C@H](OC(C)=O)C[C@]2(C)C(=O)CC[C@@H]12)CC=C [Sonolisib] (2.5 µM)	0
CC(C)(C)c1ccc(C(=O)Nc2cn3cc(-n4ccnc4)ccc3n2)cc1 (10 µM)	2
C[C@@]12CCc3occc3[C@H]1CC[C@@]13C[C@@H](CC[C@H]12)[C@@](O)(CO)C3 [Cafestol] (10 µM)	0
O=S(=O)(c1cccc2c(Cl)cccc12)N1CCCNCC1 (10 µM)	0
Oc1ccc2ccccc2c1SSc1c(O)ccc2ccccc12 (10 µM)	0
COc1cc(Nc2nc3ccccc3nc2NS(=O)(=O)c2ccc(NC(=O)c3ccc(C)c(OC)c3)cc2)cc(OC)c1 (10 µM)	0

What follows are compounds tested against LIMK2 (UniProt P53671) in the same assay as above. Conditions: K562; 2-18 h.

Structure (SMILES)	number of time points
CCS(=O)(=O)c1ccc(Oc2cc(O[C@@H](C)CO)cc(C(=O)Nc3ccn(C)n3)c2)cn1 (10 µM)	0
O=C1C(=Cc2ccc(O)c(O)c2)Oc2ccccc21 (2.5 µM)	0
CN(C)CCCNc1ccn2ncc(-c3ccc4c(c3)OCO4)c2n1 (10 µM)	0
COc1ccc(C(=O)c2cn(C(C)C)c3ncnc(N)c23)cc1NC(=O)Nc1ccc(Cl)cc1Cl (10 µM)	5
C[C@@H]1CN(Cc2cn[nH]c2-c2ccc(C#N)cc2)CCN1c1ccc(C(F)(F)F)cn1 (2.5 µM)	0
O=C1c2c(O)cc(O)cc2O[C@H](c2cc(O)c(O)c(O)c2)[C@H]1O [Dihydromyricetin] (10 µM)	0
C=CC(=O)N[C@H]1CCOC[C@H]1Nc1ncc2cc(-c3c(Cl)c(OC)cc(OC)c3Cl)ccc2n1 [Fisogatinib] (10 µM)	0
CC(C)(O)c1cc(Nc2cc(Oc3cn(C4CC4)nc3C3CCOCC3)ccn2)ccn1 (10 µM)	0
CC[C@H](C)[C@@H]1NC(=O)[C@@H]2CCCN2C(=O)[C@@H]2CCCN2C(=O)[C@@H]2CCCN2C(=O)[C@H](CC(C)C)NC(=O)CNC(=O)CNC(=O)[C@H](Cc2ccccc2)NC1=O [Heterophyllin B] (10 µM)	0
COc1cc(-c2cnc(N)c(-c3ccc(NC(=O)c4cn(CC5CCOCC5)cc(-c5ccc(C)cn5)c4=O)cc3F)c2)ccc1OC[C@H]1COCCO1 [DS-1205b (free base)] (10 µM)	0
C=CC(=O)Nc1cccc(Nc2nc(Nc3ccc(Oc4ccnc(C(=O)NC)c4)cc3)ncc2F)c1 (2.5 µM)	0
COc1ccc(-c2cnc3c(-c4cccc5ncccc45)cnn3c2)cc1 (10 µM)	0
Cc1c(Br)c(Br)c2c3c1nc(N1CCNCC1)n3CCC2 [SEL120-34A (monohydrochloride)] (2.5 µM)	0
Cc1nc(Nc2ncc(C(=O)Nc3c(C)cccc3Cl)s2)cc(N2CCN(C(=O)CCCCCCC(=O)N[C@H](C(=O)N3C[C@H](O)C[C@H]3C(=O)NCc3ccc(-c4scnc4C)cc3)C(C)(C)C)CC2)n1 (2.5 µM)	2
CC(=O)Nc1nc(C)c(-c2ccc(Cl)c(S(=O)(=O)NCCO)c2)s1 (10 µM)	0
CC(C)n1nc(C#Cc2ccccc2)c2c(N)ncnc21 (10 µM)	0
COc1cc(OC)c(/C=C/S(=O)(=O)Cc2ccc(OC)c(NCC(=O)O)c2)c(OC)c1 [Rigosertib (sodium)] (10 µM)	0
CNC[C@@H](NC(=O)c1ccc(-c2nc([C@H]3CC[C@H](O)[C@@H](F)C3)cnc2N)cc1F)c1cc(F)cc(Br)c1 [Rineterkib] (10 µM)	0
CCCC[C@H](CO)Nc1nc(NC)ncc1OC [Interferon receptor inducer-1] (10 µM)	0

Structure (SMILES)	number of time points
CC(C)=C/C=C1\O[C@@H]2CC(C)=CC(=O)[C@@H]2[C@]1(C)O [Bisabolangelone] (10 µM)	0
CCCCCC1CC1CC1CC1CCCCCCCC(=O)O (stereo not given) (10 µM)	0
CNC(=O)c1c(C)oc2cc(Oc3ncnc4cc(OC)c(OC)cc34)ccc12 [Fruquintinib] (10 µM)	0
CC(C)(C)S(=O)(=O)c1cc2c(Nc3ccc4scnc4c3)ccnc2cc1OCCOCCOCCOCCOCC(=O)Nc1cccc2c1CN(C1CCC(=O)NC1=O)C2=O (stereo not given) [PROTAC RIPK degrader-6] (10 µM)	0
C[C@]1(O)C[C@@](N)(c2ccc(-c3nc4n(c3-c3ccccc3)COc3ccncc3-4)cc2)C1 [TAS-117 (hydrochloride)] (10 µM)	0
CNC(=O)c1nnc(NC(=O)C2CC2)cc1Nc1cccc(-c2ncn(C)n2)c1OC [Deucravacitinib] (10 µM)	0
O=c1sn(-c2cccc3ccccc23)c(=O)n1Cc1ccccc1 [Tideglusib] (10 µM)	0
C=CC(=O)Nc1cccc(Oc2nc(Nc3ccc(N4CCN(C)CC4)cc3)ncc2Cl)c1 (2.5 µM)	0
CNC(=O)c1ccc(-c2cnc3ncc(Cc4ccc5ncccc5c4)n3n2)cc1F [Capmatinib] (10 µM)	0
CN(C)C(=O)c1cc2cnc(Nc3ccc(NC(=O)C4(C(=O)Nc5ccc(F)cc5)CC4)cc3)nc2n1C1CCCC1 (2 µM)	0
Cn1cc(C2=C(c3c4n(c5ccccc35)CCC(CN)C4)C(=O)NC2=O)c2ccccc21 (stereo not given) [Bisindolylmaleimide X (hydrochloride)] (2.5 µM)	0
COc1cc(/C=C/c2ccc(NC(=O)/C=C/c3cc(OC)c(OC)c(OC)c3)cc2)cc(OC)c1 (2.5 µM)	0
O=C(N=c1sccn1Cc1ccccc1)c1c[nH]c2ncccc12 (10 µM)	0
C=CCN(/C=C1/C(=O)O[C@H](COC)[C@@]2(C)C1=C(O)C(=O)C1=C2[C@H](OC(C)=O)C[C@]2(C)C(=O)CC[C@@H]12)CC=C [Sonolisib] (2.5 µM)	1
CC(C)(C)c1ccc(C(=O)Nc2cn3cc(-n4ccnc4)ccc3n2)cc1 (10 µM)	0
C[C@@]12CCc3occc3[C@H]1CC[C@@]13C[C@@H](CC[C@H]12)[C@@](O)(CO)C3 [Cafestol] (10 µM)	0
O=S(=O)(c1cccc2c(Cl)cccc12)N1CCCNCC1 (10 µM)	0
Oc1ccc2ccccc2c1SSc1c(O)ccc2ccccc12 (10 µM)	0
COc1cc(Nc2nc3ccccc3nc2NS(=O)(=O)c2ccc(NC(=O)c3ccc(C)c(OC)c3)cc2)cc(OC)c1 (10 µM)	0
